At least one structure is not confirmed: it was looked up by name or label, or the drawing left a doubt.
How the values were obtained:
C2C12 myoblasts [1] = test: Mitochondrial complex I and II activities in differentiating C2C12 cells treated with TNF-α; format: cell-based, Mouse; settings: 1.0 μM
skeletal muscle [2] = test: Western blot of rat skeletal muscle proteins; format: in vivo, Sprague-Dawley rats; settings: 25 mg/kg/day, 8 weeks
NF-kB, JNK = test: NF-kB and JNK activation in C2C12 cells treated with TNF-α; format: cell-based, Mouse
C2C12 myoblasts [3] = test: Western blot of protein expression in differentiating C2C12 cells treated with TNF-α; format: cell-based, Mouse
[4] = Blood BUN, WBC, LYM and CREA before and after the endurance capacity test; format: in vivo, Sprague-Dawley rats; settings: 25 mg/kg/day, 8 weeks
[5] = Endurance capacity, treadmill running to exhaustion after 8 weeks long-term exercise (LTE); format: in vivo, Sprague-Dawley rats; settings: sedentary rats, 25 mg/kg/day
Procedure: Sprague-Dawley male rats were purchased from a commercial breeder (SLAC, Shanghai). The rats were housed in a temperature—(22-28° C.) and humidity—(60%) controlled animal room and maintained on a 12-h light/12-h dark cycle (light on from 08:00 a.m. to 08:00 p.m.) with free access to food and water throughout the experiments. […] rats weighing 180-200 g were used. At the beginning of experiments, male rats were selected by one week running exercise at low speed (10 m/min, 20 min/day) and those high exercise activity rats were chosen for the experiments. Rats were randomly divided into four groups: Sedentary, Sedentary with HT supplement (25 mg/kg/day), Endurance exercise and Endurance exercise with HT supplement (25 mg/kg/day). HT was administrated by gavage 45 min before exercise program for each animal. Rats were run on a motorized treadmill at a speed of 20 m/min and a grade of 5° for 1 hour per day and 6 days per week. After 8 weeks exercise, endurance capacity was measured by treadmill running to exhaustion at a speed of 30 m/min and a grade of 5°. Exhaustion was defined as the inability to maintain running and avoid sound and light irritation.

[6] = system: mitochondrial complex I and II; test: Activities of mitochondrial complexes in isolated rat skeletal muscle mitochondria; format: in vivo, Sprague-Dawley rats; settings: LTE rats; 25 mg/kg/day, 8 weeks
[7] = system: genes of calcium signaling and flux; test: Gene chip analysis of human skeletal muscle biopsies (vastus lateralis), Human Genome U133 Plus 2.0; format: in vivo; settings: human skeletal muscle biopsy; 50 or 150 mg/d, 6 weeks
Procedure: Three groups each n=20 were enrolled in the study. The group assignment was randomly done by subject weight across the 3 groups. Each subject received a total of 3 capsules each day over a period of 6 weeks: • Group 1—Placebo: 3 capsules with each 333 mg of modified starch • Group 2—LOW (50 mg/d hydroxytyrosol): 1 capsule with 333 mg investigational product (1 capsule with 50 mg hydroxytyrosol) and 2 capsules with each 333 mg modified starch • Group 3—HIGH (150 mg/d hydroxytyrosol): 3 capsules with each 333mg investigational product ([…])
Muscle biopsy was performed at 2 h after ingestion of the supplements as it had taken 30 min setup time before the tissue can be removed. Two skeletal muscle tissue biopsies were taken at beginning (day 1, baseline sample) of the study and at day 42. The following was assessed in skeletal muscle tissue: 1) global gene expression profile and 2) cellular factors in tissue involved in energy metabolism or other specific pathways.
A muscle biopsy (100 mg) was taken from the vastus lateralis, a thigh muscle.
The skin was cleaned with 10% povidone-iodine (Betadine Solution, Purdue Pharma L.P., Stamford, Conn.) and then anesthetized by injecting 1.5 cc of 1% Lidocaine-HCL into the skin. […]

C2C12 cells = test: ROS level in C2C12 cells (DCFH-DA, flow cytometry); format: cell-based, Mouse; settings: C2C12 with TNF-α
skeletal muscle [8] = test: Real time PCR of rat skeletal muscle (mRNA, mitochondrial DNA); format: in vivo, Sprague-Dawley rats; settings: 25 mg/kg/day, 8 weeks
C2C12 myoblasts [9] = test: Muscle differentiation of C2C12 cells treated with TNF-α (light microscopy); format: cell-based, Mouse
C2C12 myoblasts [10] = test: Creatine kinase (CK) activity in C2C12 cells during myogenic differentiation with TNF-α; format: cell-based, Mouse; settings: 1.0 μM, p<0.05
[11] = pre- and post-exhaustive exercise

OCCc1ccc(O)c(O)c1 [hydroxytyrosol, 3,4-dihydroxyphenylethanol]
activity of mitochondrial complex I (C2C12 myoblasts [1]): increased
activity of mitochondrial complex II (C2C12 myoblasts [1]): increased
LTE-induced Atg7 protein (skeletal muscle [2]; LTE rats): efficiently eliminated
LTE-induced Beclin-1 protein (skeletal muscle [2]; LTE rats): efficiently eliminated
LTE-induced decrease in PGC-1α expression (skeletal muscle [2]; LTE rats): inhibited the decrease
LTE-induced decrease in complex I subunit expression (skeletal muscle [2]; LTE rats): inhibited the decrease
LTE-induced increase in Drp1 expression (skeletal muscle [2]; LTE rats): inhibited
LTE-induced increase in Erk1/2 (skeletal muscle [2]; LTE rats): significantly inhibited
LTE-induced increase in JNK (skeletal muscle [2]; LTE rats): significantly inhibited
LTE-induced increase in MnSOD (skeletal muscle [2]; LTE rats): significantly inhibited
LTE-induced increase in P53 (skeletal muscle [2]; LTE rats): significantly inhibited
LTE-induced increase in p21 (skeletal muscle [2]; LTE rats): significantly inhibited
Mfn1 expression (skeletal muscle [2]; LTE rats): significantly increased
Mfn2 expression (skeletal muscle [2]; LTE rats): significantly increased
Complex II, III, IV, V subunits (skeletal muscle [2]; rats): not affected
JNK activation (NF-kB, JNK): inhibited
NF-kB activation (NF-kB, JNK): inhibited
myogenin expression (C2C12 myoblasts [3]; 0.1 μM, Western blot): increased
expression of mitochondrial complex I (C2C12 myoblasts [3]; 1.0 μM): increased
expression of mitochondrial complex II (C2C12 myoblasts [3]; 1.0 μM): increased
MHC protein expression (C2C12 myoblasts [3]; 1.0 μM, Western blot): increase
myogenin expression (C2C12 myoblasts [3]; 1.0 μM, Western blot): increased
expression of PGC-1α (C2C12 myoblasts [3]; 1.0 μM, p<0.05): significantly increased
increase in CREA level ([4]; post-exhaustive animals): significantly inhibited
LTE-decreased LYM number [4, 11]: restored to normal level
LTE-increased BUN level [4, 11]: restored to normal level
LTE-increased WBC number [4, 11]: restored to normal level
CREA level ([4]; pre-exhaustive animals): reducing effect
effect on endurance capacity [5]: without any effect
mitochondrial complex I activity [6]: increased
mitochondrial complex II activity [6]: increased
Genes of calcium signaling and flux [7]: up-regulated
ROS production (C2C12 cells): inhibited
LTE-increased Tfam mRNA level (skeletal muscle [8]; LTE rats): inhibited
LTE-induced FoxO3 mRNA level (skeletal muscle [8]; LTE rats): efficiently eliminated
muscle atrophy progression (Atrogin-1 and MuRF1 mRNA) (skeletal muscle [8]; LTE rats): significantly inhibited
Mitochondrial DNA copy (skeletal muscle [8]; rats): not affected
NRF1 mRNA level (skeletal muscle [8]; rats): not affected
muscle differentiation under inflammatory conditions (C2C12 myoblasts [9]; 1.0-10 μM): increases
muscle differentiation suppressed by TNFα (C2C12 myoblasts [9]; 1 microM, TNF-α 10 ng/ml, 5 days, light microscopy): rescues
CK activities (C2C12 myoblasts [10]): significantly increased

— patent US20130059920A1, “HYDROXYTYROSOL BENEFITS MUSCLE DIFFERENTIATION AND MUSCLE CONTRACTION AND RELAXATION” (DSM IP ASSETS, B.V., priority 2009, published 2013)
